According to patent publication US20200407441A1 (I MAB BIOPHARMA US, published 2020):
No constants are given. Whether binding was seen depends on the method and setting. Some binding calls cover weakened binding; strength is not graded here.

Chains of the proteins cited; added tags and fusions are not shown. Lines headed by an entry give the natural chain unless they say otherwise; changes in a name come on top.
UniProt Q08722: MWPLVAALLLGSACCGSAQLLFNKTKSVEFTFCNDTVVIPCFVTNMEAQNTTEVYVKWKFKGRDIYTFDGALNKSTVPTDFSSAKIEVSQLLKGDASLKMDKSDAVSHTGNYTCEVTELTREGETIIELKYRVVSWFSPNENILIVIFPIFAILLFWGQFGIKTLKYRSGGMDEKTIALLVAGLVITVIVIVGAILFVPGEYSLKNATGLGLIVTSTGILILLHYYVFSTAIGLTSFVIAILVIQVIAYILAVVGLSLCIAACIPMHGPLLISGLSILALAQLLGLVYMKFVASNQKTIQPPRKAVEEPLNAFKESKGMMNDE

Legend:
[1] = molecular target: CD47 on human red blood cells (human) (UniProt Q08722); assay: RBC binding assay (figure legend)
[2] = molecular target: CD47 on human red blood cells (human) (UniProt Q08722); assay: RBC binding assay (flow cytometry)
[3] = molecular target: CD47 on human red blood cells (human) (UniProt Q08722); assay: flow cytometry on human RBCs, Donor 1 and Donor 2
[4] = molecular target: T1, human CD47-ECD (human, UniProt Q08722 19-139, limits assumed, N-terminal pyroglutamate (seen in the crystal structure)); assay: ELISA (figure legend)
T1 construct: extracellular domain; also called recombinant CD47-ECD; CD47 ECD protein

[5] = molecular target: T2, human CD47 on Raji cells (human, UniProt Q08722 19-323); assay: flow cytometry on Raji cells (figure legend)
T2 construct: whole, on cells; also called CD47+ Raji cells; CD47-bearing Raji cells

Measured: binding

B1: CD47 antibody 34C5 (antibody, V domains shown)
VH: QVQLVQSGAEVKKPGSSVKVSCKASGYTFSSYYMHWVRQAPGQGLEWMGEINPNNARINFNEKFKTRVTLTVDKSTSTAYMELSSLRSEDTAVYYCTRGYYRYGAWFGYWGQGTLVTVSS
VL: DIQMTQSPSSLSASVGDRVTITCRASQDISDYLNWYQQKPGKAPKLLIYYISRLHSGVPSRFSGSGSGTDYTLTISSLQPEDFATYYCQQGHTLPWTFGGGTKVEIK
binds: all assays above
